These are yes or no findings as the source states them, for the method shown. Some binding calls cover weakened binding; strength is not graded here. Sequences can lack the tags named with a protein.
Legend:
[1] = target: T1, human adenosine A2A receptor (A2aR) (human, UniProt P29274 1-412); experiment: flow cytometry on human PBMC; antibody 2 ug/ml; rabbit Fc format
[2] = target: T1, human adenosine A2A receptor (A2aR); experiment: flow cytometry on human PBMC (legend of FIG. 6)
[3] = target: cynomolgus adenosine A2A receptor (A2aR) (cynomolgus); experiment: flow cytometry on cynomolgus PBMC (legend of FIG. 6)
[4] = target: cynomolgus adenosine A2A receptor (A2aR) (cynomolgus); experiment: flow cytometry on cynomolgus PBMC; antibody 2 ug/ml; rabbit Fc format

Measured: binding

B1: anti-human A2aR clone 3F6-9G5 at rabbit Fc format (antibody, V domains shown)
VH: QVQLQQPGTELVKPGAPVRLSCKASGFAFTSYWMNWVRQRPGRGLEWIGRIDPSDSEAHYHHKFWGKATLTVDKSSSTVYIQLNGLTSEDSAVYYCLRSLYGKGDYWGHGTTLTVSS
VL: DVLMTQTPLSLSVRLGDQASISCRSSQSLVHRNGNTYLEWYLQRPGQSPKLLIYKVSNRFSGVPDRFSGSGSGTDFTLKISRVEAEDLGVYYCYQGSHVPLTFGSGTKLEIK
binds: [1] | [2] | [3] | [4]
